# Data as given in PubChem BioAssay AID1259261 (Sanger Institute, 2017)
# Purpose: 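Find kinase silencing that cuts viability alone or with anchor drugs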 (primary screen)
# Cell system: HCC2998 human colorectal cancer cells
# Reagent: siRNA pool against human genes
# Treatment: anchor drugs BYL719 1 µM, cetuximab 5 µg/ml or trametinib 10 nM, each compared with DMSO vehicle
# Measured: 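Cell viability relative to non-targeting siRNA, averaged over replicates, with robust z-score for siRNA alone and synergy scores with each anchor drug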
# Scale: viability z-score, knock-down alone: higher = more viable cells than controls; viability fraction, knock-down alone: higher = more viable cells; synergy score with BYL719: higher = stronger combined killing with BYL719; synergy score with trametinib: higher = stronger combined killing with trametinib
# Call rule: 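Essential when the siRNA-alone viability robust z-score is below -3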
# Meaning of the calls: active = essential; inactive = no change
# The whole screen tested 794 reagents; this is an unselected part. Over the whole deposit, 10 (1.3%) were called active. 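Calls reflect knock-down alone without drug; synergy scores with BYL719, cetuximab or trametinib do not affect calls.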 A number with no mark means an inactive call. No viability above 1 is reported: the scale is capped. Not all columns of the deposit are shown. Not stated in the record: the amount of reagent, the time to read-out.
gene symbol,"viability z-score, knock-down alone","viability fraction, knock-down alone",synergy score with BYL719,synergy score with trametinib
CHEK2,0.806,0.95,0.0367,0.0879
CDKN2D,-0.527,0.783,0.0874,0.216
SYNCRIP,-1.11,0.71,-0.0487,0.135
PRKAG1,0.442,0.904,0.0204,-0.0982
CSNK1E,1.21,1,-0.0943,-0.0404
IRAK3,-1.22,0.695,0.0341,0.0399
DNMT3A,-0.492,0.787,-0.146,-0.106
PRKAR1B,-0.51,0.785,-0.0997,-0.0483
PRPS2,-0.138,0.832,-0.0827,-0.0512
TRPM7,-0.583,0.776,-0.0896,0.0185
TP53BP1,-0.27,0.815,-0.0363,-0.00714
BMPR1A,-1.08,0.714,0.0209,0.0879
VRK2,-0.133,0.832,-0.113,0.143
OXSR1,-0.18,0.826,-0.136,0.0126
TYRO3,1.21,1,0.0619,-0.00192
CLSPN,-1.42,0.671,-0.0427,-0.0356
RIPK3,0.147,0.867,-0.115,0.0909
RIPK4,1.21,1,-0.109,-0.0419

Records above whose gene name begins with T or t (3):
gene symbol,"viability z-score, knock-down alone","viability fraction, knock-down alone",synergy score with BYL719,synergy score with trametinib
TRPM7,-0.583,0.776,-0.0896,0.0185
TP53BP1,-0.27,0.815,-0.0363,-0.00714
TYRO3,1.21,1,0.0619,-0.00192

More results follow.
gene symbol,"viability z-score, knock-down alone","viability fraction, knock-down alone",synergy score with BYL719,synergy score with trametinib
HIPK1,-0.827,0.745,-0.0439,-0.015
EPHB6,1.21,1,-0.00837,0.0906
KSR1,-2.96,0.478,0.0216,0.101
MAGI1,-1.05,0.717,0.002,0.0696
EIF2AK4,1.21,1,-0.0584,0.0605
SIK2,0.91,0.963,-0.00196,-0.0472
ZC3H11A,-1.39,0.675,-0.00636,0.0379
TEC,1.21,1,-0.0773,0.0725
THNSL1,0.128,0.865,0.0382,0.045
CDK5R1,-0.744,0.756,-0.0889,0.0949
PIM2,0.471,0.908,-0.0235,0.188
TRIB1,0.375,0.896,-0.0384,-0.0516
PRKDC,-0.701,0.761,-0.0543,0.00658
GATA3,0.0589,0.856,-0.0624,-0.135
PDPK1,-1.14,0.706,0.0392,0.0744
GUCY2F,-0.398,0.799,-0.0196,0.000723
ITK,1.08,0.984,0.00538,0.0041
NME3,-1.35,0.68,-0.141,-0.124
MAPK1,0.335,0.891,-0.101,0.175
EIF2AK3,1.19,0.998,-0.064,-0.0247
RIOK3,1.17,0.996,0.0998,0.0416
PDXK,1.21,1,-0.0493,0.0664
MED12,-0.356,0.804,-0.0669,-0.0233
GUCY2D,-3.07 (active),0.464,-0.0487,-0.0171
CAMK2G,0.325,0.89,-0.0976,-0.168
STYK1,0.169,0.87,-0.137,-0.0352
WNK4,0.512,0.913,-0.043,0.00637
CAMK2A,-0.125,0.833,-0.152,-0.0996
PHKG1,0.322,0.889,-0.198,-0.0339
TBX3,0.247,0.88,0.0101,0.101
LYN,1.21,1,-0.0299,0.111
ACVR1C,-0.597,0.774,-0.0208,-0.0189
